Test results reported in publication PMC4915159.
No constants are given. Whether binding was seen depends on the method and setting. Binding seen in cells or lysates may run through a third protein. Some binding calls cover weakened binding; strength is not graded here.

Protein sequences, listed by entry. Tags and fused reporters are not part of them.
UniProt P06730: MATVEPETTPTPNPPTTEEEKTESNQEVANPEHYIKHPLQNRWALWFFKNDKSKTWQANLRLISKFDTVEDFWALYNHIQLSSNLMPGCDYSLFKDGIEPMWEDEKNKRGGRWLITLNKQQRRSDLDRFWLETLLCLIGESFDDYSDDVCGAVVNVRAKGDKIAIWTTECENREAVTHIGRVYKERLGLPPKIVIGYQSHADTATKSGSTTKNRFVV

Biological target: eukaryotic translation initiation factor 4E (eIF4E) (human (endogenous in MiaPaCa-2)) (UniProt P06730)
Test: pull-down; cap (m7GDP) pull-down: lysates of MiaPaCa-2 cells treated with rapamycin (100 nM) or PP242 (1 uM) for 2, 6 or 24 h; 1 mg protein extract incubated 2 h at 4 °C with m7GDP-agarose beads in 50 mM HEPES-KOH pH 7.5, 150 mM KCl, 1 mM EDTA, 2 mM DTT, 1% Triton X-100; five washes; m7GDP-bound proteins seen by western blotting

binding: binds
B1: eIF4E-binding protein 3 (4E-BP3) (protein, UniProt O60516 1-100)
chain: MSTSTSCPIPGGRDQLPDCYSTTPGGTLYATTPGGTRIIYDRKFLLECKNSPIARTPPCCLPQIPGVTTPPTAPLSKLEELKEQETEEEIPDDAQFEMDI
